# Screening data, single-dose tests

Chains of the proteins cited; added tags and fusions are not shown. Residues count along the entry.
UniProt P9WPC5, whole entry: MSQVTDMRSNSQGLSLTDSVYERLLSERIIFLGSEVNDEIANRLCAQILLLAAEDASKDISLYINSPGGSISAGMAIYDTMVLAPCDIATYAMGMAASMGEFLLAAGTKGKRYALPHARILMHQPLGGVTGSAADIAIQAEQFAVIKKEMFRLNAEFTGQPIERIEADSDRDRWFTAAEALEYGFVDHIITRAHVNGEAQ
UniProt P9WPC3, whole entry partner: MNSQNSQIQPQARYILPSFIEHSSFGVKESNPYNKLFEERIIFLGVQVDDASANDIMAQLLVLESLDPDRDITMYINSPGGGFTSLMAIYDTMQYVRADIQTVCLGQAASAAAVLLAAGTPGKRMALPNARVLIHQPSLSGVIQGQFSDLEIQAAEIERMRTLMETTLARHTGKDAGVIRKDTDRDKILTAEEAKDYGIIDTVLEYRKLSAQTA
UniProt P9WNZ1, whole entry: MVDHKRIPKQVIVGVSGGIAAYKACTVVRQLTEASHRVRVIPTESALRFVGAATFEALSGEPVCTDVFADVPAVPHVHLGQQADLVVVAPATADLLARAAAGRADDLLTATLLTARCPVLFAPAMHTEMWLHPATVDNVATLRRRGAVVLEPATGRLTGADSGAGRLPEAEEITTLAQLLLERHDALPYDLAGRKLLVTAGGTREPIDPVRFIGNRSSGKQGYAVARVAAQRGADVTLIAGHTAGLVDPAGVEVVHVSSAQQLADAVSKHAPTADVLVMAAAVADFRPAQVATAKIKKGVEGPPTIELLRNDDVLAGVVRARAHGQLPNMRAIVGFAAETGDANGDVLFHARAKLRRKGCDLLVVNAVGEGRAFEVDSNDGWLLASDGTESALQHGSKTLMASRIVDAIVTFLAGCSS
UniProt Q8IDJ8, 1-583: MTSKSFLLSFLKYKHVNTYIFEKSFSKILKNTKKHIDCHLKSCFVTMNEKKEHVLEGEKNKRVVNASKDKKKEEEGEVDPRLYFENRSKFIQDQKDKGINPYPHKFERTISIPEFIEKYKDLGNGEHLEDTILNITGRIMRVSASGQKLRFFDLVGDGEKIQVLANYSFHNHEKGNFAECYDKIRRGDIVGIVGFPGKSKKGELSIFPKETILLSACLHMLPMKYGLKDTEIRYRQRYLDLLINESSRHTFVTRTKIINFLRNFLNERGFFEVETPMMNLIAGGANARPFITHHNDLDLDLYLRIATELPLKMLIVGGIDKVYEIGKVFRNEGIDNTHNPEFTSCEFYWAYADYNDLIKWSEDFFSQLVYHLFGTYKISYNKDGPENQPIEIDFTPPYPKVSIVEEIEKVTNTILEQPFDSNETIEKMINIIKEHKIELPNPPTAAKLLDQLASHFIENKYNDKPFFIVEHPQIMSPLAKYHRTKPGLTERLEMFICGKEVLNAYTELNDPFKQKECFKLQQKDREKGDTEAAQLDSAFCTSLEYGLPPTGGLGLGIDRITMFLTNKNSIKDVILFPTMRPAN
UniProt Q4DA54, 1-478: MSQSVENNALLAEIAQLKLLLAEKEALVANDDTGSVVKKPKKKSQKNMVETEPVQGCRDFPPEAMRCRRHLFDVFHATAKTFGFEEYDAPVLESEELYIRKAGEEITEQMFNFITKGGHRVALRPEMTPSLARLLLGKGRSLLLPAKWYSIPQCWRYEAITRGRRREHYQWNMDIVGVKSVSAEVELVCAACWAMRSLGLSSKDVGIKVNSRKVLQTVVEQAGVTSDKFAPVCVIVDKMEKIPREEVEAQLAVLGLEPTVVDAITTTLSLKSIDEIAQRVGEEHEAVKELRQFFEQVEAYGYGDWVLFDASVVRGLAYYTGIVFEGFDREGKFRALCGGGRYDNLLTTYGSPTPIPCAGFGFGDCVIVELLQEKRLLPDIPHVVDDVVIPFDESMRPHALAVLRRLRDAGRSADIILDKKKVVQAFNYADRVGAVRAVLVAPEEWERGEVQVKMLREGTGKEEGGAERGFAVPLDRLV
UniProt I6X8D2, whole entry: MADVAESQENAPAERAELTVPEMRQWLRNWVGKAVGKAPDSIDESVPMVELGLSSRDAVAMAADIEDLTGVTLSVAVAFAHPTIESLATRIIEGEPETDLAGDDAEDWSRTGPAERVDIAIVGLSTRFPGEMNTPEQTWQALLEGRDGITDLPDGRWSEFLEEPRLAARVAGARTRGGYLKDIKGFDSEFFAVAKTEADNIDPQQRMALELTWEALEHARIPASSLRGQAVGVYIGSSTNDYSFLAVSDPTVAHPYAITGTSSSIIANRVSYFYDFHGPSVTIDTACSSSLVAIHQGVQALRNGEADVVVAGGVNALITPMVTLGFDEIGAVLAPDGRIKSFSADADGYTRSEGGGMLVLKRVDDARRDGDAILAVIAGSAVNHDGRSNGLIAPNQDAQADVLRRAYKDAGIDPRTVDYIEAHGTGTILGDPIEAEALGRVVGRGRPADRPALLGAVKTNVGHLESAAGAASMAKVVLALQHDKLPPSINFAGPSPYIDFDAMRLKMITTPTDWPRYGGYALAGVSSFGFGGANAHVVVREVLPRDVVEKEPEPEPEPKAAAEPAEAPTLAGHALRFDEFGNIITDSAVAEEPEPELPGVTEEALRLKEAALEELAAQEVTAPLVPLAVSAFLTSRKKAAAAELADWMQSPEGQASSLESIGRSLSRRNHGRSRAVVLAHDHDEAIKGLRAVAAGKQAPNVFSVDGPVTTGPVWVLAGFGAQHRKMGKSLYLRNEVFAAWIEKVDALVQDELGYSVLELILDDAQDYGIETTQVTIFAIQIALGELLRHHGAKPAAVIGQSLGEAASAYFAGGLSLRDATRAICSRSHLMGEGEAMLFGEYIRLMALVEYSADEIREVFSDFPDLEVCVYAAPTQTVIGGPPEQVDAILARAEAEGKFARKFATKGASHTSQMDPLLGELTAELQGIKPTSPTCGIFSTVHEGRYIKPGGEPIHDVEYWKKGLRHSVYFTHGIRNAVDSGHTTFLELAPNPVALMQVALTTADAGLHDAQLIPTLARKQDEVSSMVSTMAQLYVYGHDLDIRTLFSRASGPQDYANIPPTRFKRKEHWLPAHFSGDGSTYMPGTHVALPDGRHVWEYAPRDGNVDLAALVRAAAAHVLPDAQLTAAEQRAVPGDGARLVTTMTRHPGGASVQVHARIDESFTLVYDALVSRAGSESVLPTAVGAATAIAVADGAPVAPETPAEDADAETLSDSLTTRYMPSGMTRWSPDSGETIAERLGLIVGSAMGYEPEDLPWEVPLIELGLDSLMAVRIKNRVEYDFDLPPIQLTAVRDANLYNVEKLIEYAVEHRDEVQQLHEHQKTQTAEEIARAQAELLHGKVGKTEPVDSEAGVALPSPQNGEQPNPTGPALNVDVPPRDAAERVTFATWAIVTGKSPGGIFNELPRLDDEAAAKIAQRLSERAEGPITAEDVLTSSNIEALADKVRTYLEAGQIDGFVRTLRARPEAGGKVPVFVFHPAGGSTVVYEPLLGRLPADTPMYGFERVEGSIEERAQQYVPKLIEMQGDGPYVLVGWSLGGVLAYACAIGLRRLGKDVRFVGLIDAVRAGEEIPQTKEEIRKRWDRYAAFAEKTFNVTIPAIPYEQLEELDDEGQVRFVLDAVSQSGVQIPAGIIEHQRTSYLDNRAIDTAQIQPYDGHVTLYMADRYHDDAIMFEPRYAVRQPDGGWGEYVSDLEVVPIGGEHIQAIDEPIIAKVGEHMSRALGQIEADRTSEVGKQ

Values are the deposited “Percent Effect”, in %. The record does not define 0% and 100%; most values in the screen are far below 50% and negative numbers occur (in some assays of this library far below -100). This is an unselected part of the compounds tested.

A: 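Protease assay of ClpP1P2, read by the AMC dye that it sets free. Target: ClpP1P2, Mycobacterium tuberculosis (UniProt P9WPC5 and UniProt P9WPC3). Concentration: 50 µM. Higher reads as stronger inhibition, judged from the few compounds that gave an IC50. Most other retested compounds had strongly negative values. Size under these conditions: about 69,000 compounds, about 10 of them at 50% or above in at least one test.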
B: 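Enzyme assay of CoaBC with a phosphate dye (Biomol Green) read at 650 nm. Target: Coenzyme A biosynthesis protein CoaBC, Mycobacterium tuberculosis (UniProt P9WNZ1). Concentration: 30 µM. Direction is inferred from only a few compounds that gave an IC50; most scored high, so higher reads as stronger inhibition. Most strong results did not repeat in a second test. Of about 67,000 compounds tested this way, about 40 (0.06%) reached 50% or more in at least one test.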
C: 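Lysine-tRNA ligase, Plasmodium falciparum 3D7 (UniProt Q8IDJ8). Enzyme assay of the cytosolic lysyl-tRNA synthetase in 384-well plates, read by luminescence. Compounds at 30 µM. Higher reads as stronger inhibition, judged from the few compounds that gave an IC50. About 69,000 compounds were tested under these conditions; 0.071% (about 49) showed 50% or more at least once.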
D: 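Histidine-tRNA ligase, Trypanosoma cruzi CL Brener (UniProt Q4DA54). Enzyme assay of histidyl-tRNA synthetase; the read-out is not stated. Compounds at 30 µM. Direction is inferred from retests: higher values go with stronger inhibition. Of about 69,000 compounds tested this way, about 31 (0.045%) reached 50% or more in at least one test.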
E: 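Polyketide synthase Pks13, Mycobacterium tuberculosis (UniProt I6X8D2). Enzyme assay of the thioesterase domain of polyketide synthase 13; the read-out is not stated. Concentration: 30 µM. The record gives no direction; the compounds picked for IC50 retests had high values, so higher reads as stronger inhibition. Of about 67,000 compounds tested this way, about 300 (0.46%) reached 50% or more in at least one test.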

* CCN(CC)CCNC(=O)c1cc(C(C)C)nc(N2CCCC2)n1 | A: 18.35%; B: 7.133%; C: -6.542%; D: -4.918%; E: -12.94%
* Cc1oc(-c2nc(C#N)c(NC(C)(C)C)o2)cc1S(=O)(=O)N1CCCC1 | A: -5.68%; B: 0.5051%; C: -1.237%; D: -0.5848%; E: 2.363%
* NC1(c2nc(-c3ccccc3)cc(=O)[nH]2)CCCCC1 | A: 6.077%; B: 2.871%; C: 2.995%; D: 4.902%; E: -36.07%
* O=C1CN(C(=O)CN(CC2CCC2)CC(F)(F)F)CCN1 | A: -4.858%; B: -0.1267%; C: 4.275%; D: 9.914%; E: -36.25%
* O=C(c1ccco1)N1C[C@@H]2CN(c3ccccn3)C[C@@H]2C1 | A: -5.723%; B: -5.089%; C: 6.057%; D: 2.913%; E: -33.56%
* CCOC(=O)c1sc(NC(=O)CN2C(=O)CCC2=O)c(C#N)c1C | A: 12.89%; B: -0.1203%; C: 4.338%; D: 7.538%; E: 39.92%
* CC(NS(C)(=O)=O)C(=O)N(C)Cc1cnn(-c2ccc(F)cc2)c1 (stereo not given) | A: 10.28%; B: -5.934%; C: -0.3684%; D: 3.093%; E: -16.63%
* O=C(CCc1cc2n(n1)CCCN(CCc1ccccc1)C2)NC1CC1 | A: -1.395%; B: -3.49%; C: 0.407%; D: 6.533%; E: 2.591%
* CC(C)COCC(C)NC(=O)NCc1cccc(-n2cncn2)c1 (stereo not given) | A: -2.427%; B: 8.584%; C: 1.346%; D: -1.163%; E: -26.55%
* CC(NC(=O)N1CCCN(C)CC1)c1ccc(S(N)(=O)=O)cc1 (stereo not given) | A: -2.797%; B: 4.906%; C: 4.574%; D: 3.571%; E: -38.46%
* CC1CCN(C(=O)[C@@H]2C[C@@H]3CCN(CC4CCOCC4)C[C@@H]3O2)CC1 | A: -5.375%; B: -0.6148%; C: 3.12%; D: 6.897%; E: -6.417%
* CCC[C@H]1CN(Cc2ccc(N(C)C)nc2)C[C@@H]1NC(=O)CCOC | A: -15.74%; B: 1.282%; C: 5.395%; D: 2.703%; E: 4.715%
* Cc1ccc(C(=O)NC2CCOc3ccccc32)cc1S(C)(=O)=O (stereo not given) | A: 11.89%; B: -1.186%; C: -1.669%; D: 4%
* O=C(COc1cccc(Br)c1)N1CCN(c2nccs2)CC1 | A: -2.109%; B: 3.571%; C: -2.914%; D: -0.4149%; E: -20.92%
* O=C(O)CCn1ccc(=O)c2ccccc21 | A: -11.98%; B: 4.177%; C: -0.3777%; D: 1.242%; E: 9.069%
* Cc1ccc(CN2CCC3(CC2)C(=O)N(CC(C)C)CCN3C)s1 | A: 18.85%; B: -0.7059%; C: -0.4255%; D: 5.288%; E: -38.9%
* CCN1C(=O)C2(CCOCC2)c2cc(NC(=O)c3cnoc3C)ccc21 | A: -6.999%; B: -12.23%; C: 8.512%; D: -40.59%; E: -42.82%
* Cc1nc(CN2CCCC(NCc3ccc(Cl)s3)C2)no1 (stereo not given) | A: 5.658%; B: 4%; C: -1.152%; D: 4.598%; E: -14.94%
* CN(C)c1ncccc1CNC(=O)NCC(c1cccs1)N(C)C (stereo not given) | A: 1.132%; B: 3.89%; C: 1.431%; D: 4.478%; E: -2.492%
* CN(CCCc1cnn(C)c1)C(=O)Nc1cccc2[nH]ncc12 | A: 0.5258%; B: 10.43%; C: -0.4861%; D: 6.952%; E: -8.766%
* COCc1noc(Cn2c(=O)[nH]c3ccccc32)n1 | A: -9.843%; B: -1.58%; C: -1.834%; D: 5.941%; E: -5.869%
* COCCN1C(=O)C[C@@H]2[C@H]1CCN2C(=O)COc1ccccc1 | A: 5.049%; B: 2.445%; C: 4.939%; D: 0.5464%; E: -13.59%
* Cc1noc(C)c1CCC(=O)N1CCOCC1CCc1cnccn1 (stereo not given) | A: -9.203%; B: -4.513%; C: -4.46%; D: 3.077%
* CN1CC2(CCN(C(=O)c3ccc4c(=O)n(C)cnc4c3)CC2)CC1=O | A: 2.513%; B: 3.085%; C: 5.628%; D: 5.587%; E: -29.92%
* COc1cccc(CNC(=O)c2cccnc2N)c1 | A: 16.74%; B: -4.737%; C: 2.404%; D: -0.5917%; E: -34.64%
* CCN1CC2(CC1=O)CN(C(C)=O)CCN(S(=O)(=O)CC)C2 (stereo not given) | A: -9.083%; C: -0.3857%; D: 6.135%; E: 1.673%
* COCCN1CCC2(CCN(Cc3nccs3)CC2)C1=O | A: -11.53%; B: 1.65%; C: -3.393%; D: 0.5405%; E: -6.916%

For reference, 3 entries once more:

CCN1C(=O)C2(CCOCC2)c2cc(NC(=O)c3cnoc3C)ccc21 gave A: -6.999%; B: -12.23%; C: 8.512%; D: -40.59%; E: -42.82%.
NC1(c2nc(-c3ccccc3)cc(=O)[nH]2)CCCCC1 gave A: 6.077%; B: 2.871%; C: 2.995%; D: 4.902%; E: -36.07%.
COCc1noc(Cn2c(=O)[nH]c3ccccc32)n1 gave A: -9.843%; B: -1.58%; C: -1.834%; D: 5.941%; E: -5.869%.

Data taken from ChEMBL document CHEMBL3988442, “University of Dundee, Small-Polar-MMV Screening Library” (2021).